The results in this text go back to publication PMC11054291.

Assay [1] addresses T1, Flag-ELP3 (UniProt Q9H9T3).
T1 sequence: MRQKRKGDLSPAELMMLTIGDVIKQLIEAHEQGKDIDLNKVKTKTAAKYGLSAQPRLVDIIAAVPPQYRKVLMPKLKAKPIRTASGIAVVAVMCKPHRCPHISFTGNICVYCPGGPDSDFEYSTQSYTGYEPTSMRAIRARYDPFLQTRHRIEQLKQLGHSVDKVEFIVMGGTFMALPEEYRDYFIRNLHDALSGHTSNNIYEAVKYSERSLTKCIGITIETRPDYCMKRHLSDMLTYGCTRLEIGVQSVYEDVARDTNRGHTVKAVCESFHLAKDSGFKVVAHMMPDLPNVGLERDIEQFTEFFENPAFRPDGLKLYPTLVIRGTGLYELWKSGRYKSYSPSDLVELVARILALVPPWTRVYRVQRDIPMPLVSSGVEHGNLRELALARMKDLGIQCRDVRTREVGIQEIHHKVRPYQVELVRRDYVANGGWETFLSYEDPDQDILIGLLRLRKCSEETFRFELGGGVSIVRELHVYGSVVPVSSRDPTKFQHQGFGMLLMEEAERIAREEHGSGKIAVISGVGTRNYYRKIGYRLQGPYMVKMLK
Kind of assay: co-IP; two tagged proteins co-transfected into HEK-293T cells (control cells; for Flag-ELP3 with HA-c-Myc also ELP4-knockdown or ELP5-knockdown cells); IP with anti-Flag M2 beads or anti-HA with A/G beads, 3 h; lysis buffer 20 mM Tris–HCl pH 7.4, 150 mM NaCl, 1% Triton; immunoblot for the other tag.

In assay [2] the target is T2, GST-ELP3 1–81 (UniProt Q9H9T3).
T2 sequence: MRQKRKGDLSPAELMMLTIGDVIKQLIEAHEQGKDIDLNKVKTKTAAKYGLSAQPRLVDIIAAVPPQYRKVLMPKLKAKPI
Briefly: pull-down; GST-ELP3 1–81 (GST as control) incubated with MBP-His-c-Myc 1–143 for 3 h at 4°C in 50 mM Tris–HCl pH 7.6, 120 mM NaCl, 5 mM MgCl2, 0.5% NP-40, 1 mM EDTA, then glutathione sepharose beads; SDS–PAGE and Coomassie staining; both purified.

Results are given in words; binding and its absence hold for the method and conditions named. Binding calls can cover weak binding; strength is not graded here. Tags and fused reporters may be left off the sequences shown. For some assays here: In cells and extracts the contact can be indirect.

Take HA-c-Myc T58A/S62A: the binding result in assay [1] was “binds”.
Regarding HA-c-Myc T244A, the binding entry in assay [1] is “binds”.
With HA-c-Myc T58A, in assay [1], the binding result is listed as “binds”.
HA-c-Myc S62A: the binding result in assay [1] was “binds”.
Consider “MBP-His-c-Myc 1–143 (domain or fragment)”, for which the binding entry in assay [2] is recorded as “binds”.
